Reference: PubChem BioAssay AID1671195 (Yale University, 2021)

- Test: 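Knockdowns that increase or decrease uptake of fluorescent LDL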 (primary screen)
- Cell system: human Huh7 hepatoma cells
- Reagents: siRNA pool against human genes, 18 nM
- Duration: about 2 to 2.5 days of knockdown, then 8 h LDL uptake
- Challenge: DiI-labelled LDL at 30 µg/ml for 8 h, in lipoprotein-deficient serum medium
- Read-out: 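Per-cell DiI-LDL intensity by automated imaging; well means scaled to the plate median and given as a robust z-score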
- Direction: robust z-score: higher = more LDL uptake after knockdown
- Hit rule: 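Active when two or more replicates show a robust z-score above 2 or below -2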
Here is one part, drawn at random, of about 22,000 deposited reagents. Of all reagents, about 1,510 (6.9%) were called active. 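Active includes knockdowns raising or lowering LDL uptake; positive z-scores mean more uptake, negative mean less.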 A number with no mark means an inactive call.

| target | robust z-score, replicate 1 | robust z-score, replicate 2 | robust z-score, replicate 3 |
| --- | --- | --- | --- |
| CNIH2 | -0.648 | -0.465 | -0.524 |
| SLC22A15 | -1.02 | -1.06 | -0.903 |
| HRAS | -1.69 | -1.43 | -1.65 |
| LOC388459 (retired record) | 0.593 | 0.824 | 0.757 |
| STK26 | 0.813 | 0.724 | 0.00184 |
| GALNT12 | 2.57 (active) | 2.22 | 2.62 |
| LRRC37A6P | 0.845 | 1.1 | 1.13 |
| WWTR1 | 0.153 | 0.608 | 1.74 |
| CD59 | 0.0558 | 0.923 | 2.44 |
| SYN2 | -0.476 | -0.358 | -0.378 |
| YJEFN3 | 0.279 | 0.665 | 0.474 |
| LOC388620 (retired record) | -0.0881 | 0.024 | 0.318 |
| ACIN1 | 0.633 | 0.589 | -0.94 |
| NXT1 | 0.0554 | 2.12 | -0.374 |
| LOC440966 (retired record) | -1.1 | -0.54 | -0.976 |
| H2BW1 | -0.615 | -0.743 | -0.107 |
| TSHZ3 | 0.533 | 1.39 | 0.483 |
| LMAN2 | -0.491 | -0.212 | -0.473 |
| LOC441070 (retired record) | -0.541 | -0.557 | -0.671 |
| SRGAP1 | 1.92 (active) | 4.37 | 4.31 |
| RASAL2 | 0.0369 | 0.0677 | 0.259 |
| LYZL4 | 0.836 | 0.554 | 0.774 |
| LOC340171 (retired record) | 0.636 | 0.445 | 0.712 |

As entered above:
TSHZ3, robust z-score, replicate 3: 0.483
Entry for HRAS in “robust z-score, replicate 3”: -1.65
Entry for LMAN2 in “robust z-score, replicate 1”: -0.491

More entries follow:
| target | robust z-score, replicate 1 | robust z-score, replicate 2 | robust z-score, replicate 3 |
| --- | --- | --- | --- |
| CAPN8 | -0.0466 | 0.322 | 0.34 |
| AKIRIN1 | -1.32 | -1.89 | -1.78 |
| PPIAP87 | -0.328 | -0.472 | -0.0811 |
| SLC2A3P2 | -1.58 | -1.2 | -1.11 |
| LRRC55 | 0.74 | 0.304 | -0.2 |
| SMARCA1 | -0.0313 | -0.289 | -0.605 |
| FASTKD4 | -0.973 | -0.544 | -0.856 |
| WDR46 | -0.295 | -1.3 | -0.82 |
| AR | 0.933 | -0.247 | 1.02 |
| C17orf58 | -1.66 | -1.43 | -1.87 |
| FKBP4 | -0.971 | -0.8 | -0.881 |
| SIRT2 | 0.543 | 1.24 | -0.511 |
| UBL4A | -0.0334 | 0.366 | 0.38 |
| SLC10A6 | -1.73 | -0.924 | -0.97 |
| FCER1A | -1.48 | -1.28 | -1.21 |
| ST6GALNAC1 | -0.494 | -0.514 | -0.448 |
| KIF3A | 0.309 | 0.382 | -0.497 |
| RDH11 | -0.589 | -0.363 | -0.203 |
| DRC11 | 2.05 (active) | 2.16 | 2.2 |
| RYBP | 0.57 | 0.0939 | 0.693 |
| MAP4K4 | 1.53 | 0.213 | 0.484 |
| ZNF663P | -0.0301 | -0.436 | -0.48 |
| AIMP1 | -1.04 | -0.864 | -0.57 |
| ALAD | -0.294 | -0.42 | -0.322 |
| CLUL1 | -1.15 | -0.0593 | 0.298 |
| ANKRD35 | -1.42 | -0.549 | -1.43 |
| DUSP13B | 0.166 | -0.392 | -0.108 |
| CCDC122 | -0.0451 | 0.367 | -0.187 |
| STAG2 | 0.0705 | -1.28 | 0.636 |
| SCARF2 | -0.925 | -0.853 | -0.683 |
| CLC | -1.3 | -0.573 | -1.5 |
| OR7E85P | 0.612 | 0.389 | 0.819 |
| TSPAN19 | 0.396 | 0.666 | 0.0785 |
| LOC347424 (retired record) | -0.87 | -1.19 | -0.934 |
| DEFB129 | 0.544 | 0.618 | 0.265 |
| SHOX | -0.941 | -1.03 | 0.413 |
| CYB5R1 | -0.176 | 0.267 | 0.00288 |
| PRR23B | -0.557 | -0.64 | -0.986 |
| TES | -1.06 | -1.07 | 0.0217 |
| LOC392586 (retired record) | -0.553 | -0.0601 | -0.447 |
| CXCL8 | 1.46 | 2.01 | 1.69 |
| ADGRG1 | 1.61 | 1.49 | 1.6 |
| BTN2A2 | -0.0768 | -0.299 | -0.364 |
| CD93 | -1.03 | -1.25 | -1.03 |
| CDC42EP2 | -2.56 | -0.572 | -1.28 |
